PubChem BioAssay AID1224830 | NIAID | 2016
Assay: 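Host factors that control LPS-induced TNF expression in human macrophages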 (primary screen). Cell system: human THP-1 monocytic leukaemia cells, TNF dual-luciferase reporter clone, PMA-differentiated to macrophage-like cells. Reagents: siRNA pool against human genes, 50 nM. Time to read-out: LPS for 4 h, given about 3 days after siRNA transfection. Conditions: bacterial LPS (TLR4 ligand), 10 ng/ml. Read-out: 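Ratio of firefly to renilla light, scaled to the plate median and expressed as a robust z-score per replicate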. Direction: TNF reporter robust z-score: higher = stronger TNF reporter response to LPS. Rule for the call: 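Each well counts as active if its z-score is over 2.8 or under -1.5; controls are left without a call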.
The whole screen tested about 18,000 reagents; this is a random part of them. About 2,900 of them (16%) were called active. 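Calls are made per well; low scores hint the gene aids the LPS response, high scores that it dampens it.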 Unmarked entries are inactive. Repeated entries: four replicate wells of each siRNA pool.

gene symbol	TNF reporter robust z-score
OR5K1	-0.1
OR5K1	0.4
OR5K1	0.32
OR5K1	-0.56
TLCD4	0.42
TLCD4	-0.12
TLCD4	1.12
TLCD4	1.38
WFDC10A	0.05
WFDC10A	0.38
WFDC10A	0.27
WFDC10A	0.56
ASAP2	-0.24
ASAP2	-0.85
ASAP2	-1.29
ASAP2	-0.62
BCAS3	-1.24
BCAS3	-0.72
BCAS3	-1.25
BCAS3	-0.83
LELP1	-0.91
LELP1	0.7
LELP1	-0.15
FAHD2A	0.46
FAHD2A	0.66
FAHD2A	0.21
FAHD2A	1.12
SWSAP1	-0.45
SWSAP1	0.03
SWSAP1	0.72
SWSAP1	-0.79
COMMD4	-0.19
COMMD4	0.38
COMMD4	0.29
COMMD4	-1.39
NGLY1	-0.01
NGLY1	-0.31
NGLY1	0.2
NGLY1	0.28
OAF	0.05
OAF	-0.13
OAF	-0.47
OAF	0.13
GYPC	3.23 (active)
GYPC	1.09
GYPC	0.06
GYPC	1.05
FXYD1	-0.59
FXYD1	-0.33
FXYD1	-0.07
FXYD1	1.31
TAF10	1.46
TAF10	2.53
TAF10	2.32
TAF10	0.59
KCTD4	2.49
KCTD4	4.64 (active)
KCTD4	-0.41
KCTD4	2.24
CYP4F2	0.45
CYP4F2	0.76
CYP4F2	-0.2
CYP4F2	1.53
LAT2	-0.99
LAT2	-1.03
LAT2	-1.33
LAT2	-0.3
NDUFB9	-1.25
NDUFB9	-0.42
NDUFB9	-0.86
NDUFB9	-1.17
PABPN1L	0.41
PABPN1L	0.91
PABPN1L	0.66
PABPN1L	0.57
DSCR4	-0.62
DSCR4	-1.1
DSCR4	-1.22
DSCR4	-0.91
HENMT1	0.6
HENMT1	-0.12
HENMT1	0.73
MIMS1	0.62
MIMS1	1.31
MIMS1	0.78
MIMS1	2.43
SLC4A1	0.93
SLC4A1	0.44
SLC4A1	0.1
SLC4A1	0.66
THBS1	2.05
THBS1	2.28
THBS1	1.98
THBS1	1.74
GALNT2	0.69
GALNT2	1.39
GALNT2	0
GALNT2	1.09
PNPLA7	-1.69 (active)
PNPLA7	-1.97 (active)
PNPLA7	-1.79 (active)
PNPLA7	-1.82 (active)
TXNDC17	0.59
TXNDC17	1.59
TXNDC17	0.97
TXNDC17	1.03
KCNAB2	-0.13
KCNAB2	1.34
KCNAB2	0.7
KCNAB2	4.69 (active)

Entries listed so far whose target name starts with A or a (4):
gene symbol	TNF reporter robust z-score
ASAP2	-0.24
ASAP2	-0.85
ASAP2	-1.29
ASAP2	-0.62
